Results from publication PMC12639495.
Results are given in words; binding and its absence hold for the method and conditions named. In cells and extracts the contact can be indirect. Some results given as binding are weak or reduced against the parent protein; the word gives no strength.

Sequences of proteins named here, by UniProt entry; tags and fusion partners are left off.
UniProt P37231: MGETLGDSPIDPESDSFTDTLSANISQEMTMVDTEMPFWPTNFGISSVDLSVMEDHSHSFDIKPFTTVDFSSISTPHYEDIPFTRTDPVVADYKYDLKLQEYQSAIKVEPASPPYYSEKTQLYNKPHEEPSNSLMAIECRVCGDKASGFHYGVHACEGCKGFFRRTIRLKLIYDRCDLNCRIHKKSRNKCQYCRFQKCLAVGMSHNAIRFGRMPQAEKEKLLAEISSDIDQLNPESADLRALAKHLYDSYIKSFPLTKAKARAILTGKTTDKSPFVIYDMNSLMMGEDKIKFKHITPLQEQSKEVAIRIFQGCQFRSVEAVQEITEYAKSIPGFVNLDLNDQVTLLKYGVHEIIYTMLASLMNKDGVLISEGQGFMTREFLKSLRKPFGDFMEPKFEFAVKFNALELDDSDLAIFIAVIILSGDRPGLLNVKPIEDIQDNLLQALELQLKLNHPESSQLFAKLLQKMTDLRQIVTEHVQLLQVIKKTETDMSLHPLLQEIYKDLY
UniProt Q92830: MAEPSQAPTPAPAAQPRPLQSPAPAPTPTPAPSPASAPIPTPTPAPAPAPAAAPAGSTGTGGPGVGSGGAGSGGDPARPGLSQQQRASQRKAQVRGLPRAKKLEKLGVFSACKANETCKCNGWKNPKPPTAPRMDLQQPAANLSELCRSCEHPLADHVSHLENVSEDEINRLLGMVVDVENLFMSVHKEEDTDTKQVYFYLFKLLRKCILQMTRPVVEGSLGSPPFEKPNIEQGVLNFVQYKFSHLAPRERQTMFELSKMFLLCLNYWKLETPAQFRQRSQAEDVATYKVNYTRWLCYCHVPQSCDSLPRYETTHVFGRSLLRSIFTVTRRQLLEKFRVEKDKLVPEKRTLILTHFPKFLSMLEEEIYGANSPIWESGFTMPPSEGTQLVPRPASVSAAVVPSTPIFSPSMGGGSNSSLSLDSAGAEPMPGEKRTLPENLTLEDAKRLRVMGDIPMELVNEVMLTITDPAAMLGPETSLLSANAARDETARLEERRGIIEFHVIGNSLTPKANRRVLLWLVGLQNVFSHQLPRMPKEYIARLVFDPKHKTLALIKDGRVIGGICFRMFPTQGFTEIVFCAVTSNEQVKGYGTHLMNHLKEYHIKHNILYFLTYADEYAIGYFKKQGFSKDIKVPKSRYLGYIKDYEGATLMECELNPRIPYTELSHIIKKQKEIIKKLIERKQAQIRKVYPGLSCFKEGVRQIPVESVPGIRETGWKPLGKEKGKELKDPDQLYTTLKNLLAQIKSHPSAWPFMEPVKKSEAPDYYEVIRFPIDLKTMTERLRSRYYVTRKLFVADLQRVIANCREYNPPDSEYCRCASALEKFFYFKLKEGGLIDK

Target: T1, transcriptional coactivator PGC1β (UniProt Q86YN6)
T1 sequence: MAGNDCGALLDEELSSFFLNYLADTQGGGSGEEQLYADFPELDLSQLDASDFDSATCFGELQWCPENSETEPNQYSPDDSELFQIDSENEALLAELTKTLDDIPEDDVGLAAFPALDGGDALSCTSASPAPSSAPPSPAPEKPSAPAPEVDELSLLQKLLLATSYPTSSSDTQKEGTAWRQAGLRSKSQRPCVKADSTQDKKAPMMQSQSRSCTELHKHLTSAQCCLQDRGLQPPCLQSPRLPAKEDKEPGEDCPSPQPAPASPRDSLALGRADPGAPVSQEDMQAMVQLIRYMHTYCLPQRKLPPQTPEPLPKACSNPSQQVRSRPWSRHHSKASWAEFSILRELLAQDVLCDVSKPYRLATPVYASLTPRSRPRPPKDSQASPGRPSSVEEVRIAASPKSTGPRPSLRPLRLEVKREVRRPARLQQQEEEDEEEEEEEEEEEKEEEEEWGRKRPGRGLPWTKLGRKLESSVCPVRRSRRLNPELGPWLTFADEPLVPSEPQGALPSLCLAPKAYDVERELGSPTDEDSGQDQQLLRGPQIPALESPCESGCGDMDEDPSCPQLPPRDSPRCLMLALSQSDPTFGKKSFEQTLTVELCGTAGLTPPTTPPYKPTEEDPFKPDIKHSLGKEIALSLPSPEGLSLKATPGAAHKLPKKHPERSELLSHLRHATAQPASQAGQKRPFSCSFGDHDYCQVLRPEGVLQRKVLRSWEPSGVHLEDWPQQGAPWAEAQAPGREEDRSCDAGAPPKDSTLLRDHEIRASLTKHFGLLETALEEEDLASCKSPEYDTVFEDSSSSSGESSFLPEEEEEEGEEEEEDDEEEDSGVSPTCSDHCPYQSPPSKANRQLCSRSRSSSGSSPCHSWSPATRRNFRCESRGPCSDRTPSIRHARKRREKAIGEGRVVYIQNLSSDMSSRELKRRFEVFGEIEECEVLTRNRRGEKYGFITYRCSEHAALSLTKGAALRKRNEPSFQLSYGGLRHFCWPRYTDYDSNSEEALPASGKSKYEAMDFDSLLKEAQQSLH
Test: co-IP; antibodies (GCN5, PGC-1β, Ac-Lys, PPARγ; 4 μg) on protein A/G magnetic beads; pre-cleared RIPA lysates, 4 °C for 2 h; five washes with PBS containing 0.25% Tween-20; Western blot; cells with EAS1 knock-down or overexpression

binding | Substance
binds | transcription factor PPARγ (from UniProt P37231 1-505)
binds | acetyltransferase GCN5 (from UniProt Q92830 1-837)
